Laboratory results from publication PMC10166177.

Tests used:
[1] = biological target: Flag-tagged RNPS1 ΔS (serine-rich domain deletion); test: co-IP; HEK293 cells (legend; the text says N2a cells) expressing HA-SNIP1 and/or Flag-tagged full-length or domain-truncated RNPS1
[2] = biological target: Flag-tagged RNPS1 ΔRRM (RNA recognition motif deletion); test: as above
[3] = biological target: Flag-tagged FHA domain-truncated SNIP1 (ΔFHA); test: co-IP; N2a cells expressing Flag-tagged full-length or ΔFHA SNIP1 together with RNPS1-Myc

binding [1]: no binding
binding [2]: binds
B1: HA-SNIP1 (protein, UniProt Q8BIZ6 1-383)
chain: MKAGKSERERSGRRRHRSGDALTTVVVKQERLSPEPVAHRRPDAPAASLSPPAAEPGHSGHRGSRARSPAKKKSKSSGRRSKSPRTKRSQSPHYPMVKVKQEREDHPRRGREDRQHREPSEQEHRRARNSERDRHRGHSRQGRSSDERPVSGQDRDRDSQNLQAQEEERDFHNARRREHRQQNESAGSEAQEVIPRPAGNRSKEVPVKEKPSFELSGALLEDTNTFRGVVIKYSEPPEARIPKKRWRLYPFKNDEVLPVMYIHRQSAYLLGRHRRIADIPIDHPSCSKQHAVFQYRLVEYTRADGTVGRRVKPYIIDLGSGNGTFLNNKRIEPQRYYELKEKDVLKFGFSSREYVLLHESSDTSELDRKEDEDDEEEEMVSDS

binding [3]: no binding
B2: RNPS1-Myc (protein, UniProt Q99M28 1-305)
chain: MDLSGVKKKSLLGVKENNKKSSTRAPSPTKRKDRSDEKSKDRSKDKGATKESSEKDRGRDKTRKRRSASSGSSSTRSRSSSTSSSGSSTSTGSSSGSSSSSASSRSGSSSTSRSSSSSSSSGSPSPSRRRHDNRRRSRSKSKPPKRDEKERKRRSPSPKPTKVHIGRLTRNVTKDHIMEIFSTYGKIKMIDMPVERMHPHLSKGYAYVEFENPDEAEKALKHMDGGQIDGQEITATAVLAPWPRPPPRRFSPPRRMLPPPPMWRRSPPRMRRRSRSPRRRSPVRRRSRSPGRRRHRSRSSSNSSR

Results are given in words; binding and its absence hold for the method and conditions named. In cells and extracts the contact can be indirect. For part of these data: Binding calls can cover weak binding; strength is not graded here. Sequences can lack the tags named with a protein. One block for each binder: values may come before it.
